Test results: EP1796707B1, “PEPTIDES THAT SELECTIVELY HOME TO HEART VASCULATURE AND RELATED CONJUGATES AND METHODS” (The Burnham Institute, priority 2004, dated 2011)
Entries after “also recorded” stand apart in the source; their conditions may differ. Part of at least one peptide drawing is inferred or uncertain, most often the ends. Where no end group is shown, it is not given here.

Assays:
heart blood vessels = experiment: Localization of intravenously injected fluorescein-conjugated peptide, CD31 staining; type: in vivo, mice; conditions: fluorescein-conjugated free peptide, intravenous injection, tissues collected two hours later; heart blood vessels and endocardium
HLP/CRIP2 = experiment: Phage binding to 293T cells transfected with cognate receptor, with free peptide competition; parameters: species or system murine
[1] = system: heart-derived cell suspensions; experiment: Ex vivo competition of CRPPR-displaying phage binding to heart cell suspensions; parameters: species or system murine; conditions: free peptide or antibody at various concentrations; dose-dependent
Sigirr/TIR8 = experiment: Phage binding to 293T cells transfected with cognate receptor, with free peptide competition; parameters: species or system murine
[2] = conclusion from phage binding and competition on transfected 293T cells

Substance | co-localization of injected peptide with vascular marker CD31 in the heart (heart blood vessels) | specific binding to the receptor (in words) (HLP/CRIP2; [2]) | inhibition of phage binding to transfected cells by competition with free peptide (HLP/CRIP2; free synthetic peptide 100 µg/ml, CRPPR phage on CRIP2-transfected cells) | inhibition of CRPPR-displaying phage binding to heart-derived cell suspensions [1] | specific binding to the receptor (in words) (Sigirr/TIR8; [2]) | inhibition of phage binding to transfected cells by competition with free peptide (Sigirr/TIR8; free synthetic peptide 100 µg/ml, CKRAVR phage on Sigirr-transfected cells)
CRPPR [CRPPR] | co-localized extensively; also recorded: co-localize with CD31 | specifically binds | inhibited | blocked binding; also recorded: Dose dependent inhibition |  | 
CKRAVR [CKRAVR] |  |  |  |  | specifically binds | inhibited
